Results: PubChem BioAssay AID2685 (National Center for Advancing Translational Sciences (NCATS), 2010)
The whole screen tested about 320,000 compounds, of which about 2,100 (0.66%) were called active. The inconclusive results got no clear call from the source; some entries with a clear call stand among them for comparison. Calls follow the shape of the dose curve; as a rule, active = well fitted inhibition curve with a large enough effect in the signal ratio, with a control signal flat (not every such curve was filed as active); inconclusive = small, poorly fitted or top-dose-only effect, or effect the other way, or a change in a side signal; inactive = flat fitted curve, though single readings scatter; the % refers to the signal ratio. Where the call is inconclusive, the potency comes from a doubtful curve fit.
% is scaled to controls: 0 for no effect and ±100 for the full control effect; potency is read from the fitted curve at half-maximal effect.

Assay: qHTS Assay for Lipid Storage Modulators in Drosophila S3 Cells
Settings: BODIPY lipid droplet fluorescence, 18-24 h, cells fed with added oleic acid; lipid storage change, negative = inhibition: at 46.1 µM (top of the series) unless noted
Method in brief: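 Laser-scanning cytometry quantifies lipid droplet accumulation (500–530 nm total intensity; droplet/cell object ratio) in oleic acid-fed (400 uM added) Drosophila S3 cells treated with a concentration series. 20 uM Triacsin C defined 100% inhibition.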
With `COC(=O)c1ccc(CNC(=O)CNc2cc(C(F)(F)F)ccc2N2CCOCC2)cc1` the Potency was inconclusive: 0.231 µM [activator, full curve, poor fit].
For `CNc1nc(C)c(C(=O)OCc2ccccc2)s1`, the lipid storage change, negative = inhibition was inconclusive: 19.1%.
In the case of `Cc1ccc(S(=O)(=O)N2CCC3(CC2)OCCO3)cc1`, the Potency is reported as inconclusive: 29.1 µM [activator, single point].
With `CCOc1ccc(NC(=O)CN(C)C(=O)C(C)N2C(=O)c3ccccc3C2=O)cc1OCC` (stereo not given) the lipid storage change, negative = inhibition was inconclusive: 26.5%.
For `CC(C)CC(=O)Nc1c(C(=O)N2CCN(Cc3ccccc3)CC2)oc2ccccc12`, the lipid storage change, negative = inhibition was inconclusive: 18.8%.
For `COc1cccc(OCC(=O)Nc2ccccc2-c2ccccc2)c1`, the lipid storage change, negative = inhibition was inconclusive: 25.6%.
With `Cc1ccc(-c2ccc(S(=O)(=O)Nc3cccnc3)cc2)cc1` the Potency was inconclusive: 16.4 µM [falling, partial curve, poor fit].
In the case of `Cc1csc(-c2cnn(-c3ccccc3)c2NC(=O)c2cccc(C(F)(F)F)c2)n1`, the lipid storage change, negative = inhibition is reported as inconclusive: -54.9%.
For `CCN(CC(=O)O)S(=O)(=O)c1cc(Cl)ccc1Cl`, the lipid storage change, negative = inhibition was inconclusive: -91.2%.
For `COCCNS(=O)(=O)c1cccc2cccnc12`, the lipid storage change, negative = inhibition was inconclusive: 57.9%.
For `Cc1oc(-c2ccccc2Cl)nc1CS(=O)(=O)CC(=O)NCCN1CCOCC1`, the lipid storage change, negative = inhibition was inconclusive: 19.4%.
In the case of `Cc1nonc1NC(=O)CSc1nc2c(C)cccc2cc1C#N`, the Potency is reported as inconclusive: 4.11 µM [activator, single point].
In the case of `O=C(CCC(=O)N1CCOCC1)NCCc1ccccc1`, the Potency is reported as inconclusive: 23.1 µM [activator, single point].
For `Clc1ccc2[nH]c3c(NCCN4CCOCC4)ncnc3c2c1`, the Potency was inconclusive: 1.84 µM [rising, partial curve].
For `C/C(=N/N1CCN(c2ccccn2)CC1)c1cccc([N+](=O)[O-])c1`, the lipid storage change, negative = inhibition was inconclusive: 37.7%.
With `O=C(NN=C1CCCCC1)c1ccccc1-n1cccc1` the lipid storage change, negative = inhibition was inconclusive: 19.6%.
For `Cc1ccc(/C(O)=C/c2nc3ccccc3oc2=O)cc1`, the lipid storage change, negative = inhibition was inconclusive: -18.9%.
For `COc1ccc(C2N(c3cc(Cl)ccc3OC)C(=O)C3CCCN32)c(OC)c1` (stereo not given), the lipid storage change, negative = inhibition was inconclusive: 17.3%.
With `CCOc1ccc(CCNC(=O)CN2CCN(Cc3ccccc3F)C2=O)cc1OCC` the Potency was inconclusive: 16.4 µM [falling, single point].
For `Cc1ccc(C)c(OCC(=O)NC2CCCCCC2)c1`, the Potency was inconclusive: 29.1 µM [falling, single point].
In the case of `COC(=O)c1[nH]c2ccc(F)cc2c1NC(=O)CCN1CCN(Cc2ccc3c(c2)OCO3)CC1`, the lipid storage change, negative = inhibition is reported as inconclusive: 17.8%.
For `O=C(CCS(=O)(=O)c1cccc2nonc12)Nc1ccc(Br)cc1`, the lipid storage change, negative = inhibition was inconclusive: -25.9%.
For `NC(=O)c1ccccc1OCCOc1ccc(Br)cc1`, the Potency was inconclusive: 6.51 µM [activator, single point].
For `N#Cc1ccc(C[C@@H](NS(=O)(=O)c2ccc(C(=O)O)cc2)C(=O)O)cc1`, the lipid storage change, negative = inhibition was “inactive”.
With `C/C(=N\NC(=O)c1ccccc1)c1ccccc1F` the lipid storage change, negative = inhibition was inconclusive: 16%.
With `Cc1cccc(C(=O)OCC(=O)c2ccc3c(c2)OCO3)c1O` the Potency was inconclusive: 29.1 µM [cytotoxic, single point].
In the case of `O=C(NC1CCCC1)C(c1ccncc1)N(Cc1ccccc1)C(=O)c1ccc(-c2ccccc2)[nH]1` (stereo not given), the Potency is reported as inconclusive: 8.2 µM [activator, partial curve].
In the case of `Cc1ccccc1NC1=C(Cl)C(=O)OC1OC(=O)c1ccco1` (stereo not given), the lipid storage change, negative = inhibition is reported as inconclusive: -84.1%.
With `O=C(CNC(=O)OCc1ccccc1)NC1CCCCCCC1` the Potency was inconclusive: 5.8 µM [activator, single point].
With `CN(C)C(CNC(=O)CCc1nc2ccccc2s1)c1ccccc1` (stereo not given) the lipid storage change, negative = inhibition was inconclusive: 19.6%.
With `CCCCNS(=O)(=O)c1ccc2nc(SCC(N)=O)[nH]c2c1` the lipid storage change, negative = inhibition was inconclusive: -19.7%.
With `O=C1Nc2ccccc2C12OCCO2` the Potency was inconclusive: 0.651 µM [falling, full curve].
In the case of `COc1ccccc1N1CCN(C(=O)CSc2ccc3c(C)cc(C)nc3n2)CC1`, the lipid storage change, negative = inhibition is reported as inconclusive: 1.81%.
In the case of `CSc1nc2nc3c(c(=O)n2[nH]1)CN(Cc1ccccc1)CC3`, the Potency is reported as inconclusive: 9.2 µM [falling, partial curve, poor fit].
In the case of `Cc1ccc(C(C)NC(=O)c2ccc3c(c2)OCCO3)cc1C` (stereo not given), the lipid storage change, negative = inhibition is reported as inconclusive: -44.2%.
In the case of `CC12CCC(C(=O)NNC(=O)c3ccccc3)(OC1=O)C2(C)C` (stereo not given), the lipid storage change, negative = inhibition is reported as inconclusive: -11.7%.
With `CC(C)(C)OC(=O)N1CCC(CNC(=O)c2ccc(F)cc2)CC1` the Potency was inconclusive: 18.4 µM [cytotoxic, partial curve].
For `O=C(N/N=C/c1ccccc1)C(=O)N/N=C/c1ccccc1`, the Potency was inconclusive: 6.51 µM [activator, full curve].
For `CCCC(=O)Nc1nn(CC)c2nc3ccc(C)cc3cc12`, the lipid storage change, negative = inhibition was inconclusive: 6.8%.
With `CC1CC(c2ccccc2)n2nc(NC(=O)c3ccco3)nc2N1` (stereo not given) the lipid storage change, negative = inhibition was inconclusive: -91.3%.
In the case of `COc1ccc(N2C(=O)C3C(C2=O)C(C(=O)c2ccccc2)N2CCCC32)cc1` (stereo not given), the lipid storage change, negative = inhibition is reported as inconclusive: -34.4%.
For `NS(=O)(=O)c1ccc(Oc2ccc(S(N)(=O)=O)cc2)cc1`, the lipid storage change, negative = inhibition was inconclusive: 17.9%.
For `O=C(NCc1ccco1)/C(=C/c1ccc(Br)cc1)NC(=O)c1ccco1`, the lipid storage change, negative = inhibition was inconclusive: -19%.
In the case of `COc1ccc(C(=O)CSc2cc(C)[nH]c(=O)n2)cc1`, the Potency is reported as inconclusive: 18.4 µM [activator, single point].
For `Nc1ccccc1NC(=O)c1ccccc1`, the lipid storage change, negative = inhibition was inconclusive: -6.55%.
For `O=C(CNc1ccc(Br)cc1)c1ccccc1`, the lipid storage change, negative = inhibition was “inactive”.
In the case of `COC(=O)c1sccc1-c1ccc(C(=O)Nc2ccccc2)o1`, the Potency is reported as inconclusive: 16.4 µM [falling, single point].
With `CC1CCCCN1C(=O)Cn1cnc2cc([N+](=O)[O-])ccc2c1=O` (stereo not given) the lipid storage change, negative = inhibition was inconclusive: 52.3%.
For `Cc1ccc2nc(Cn3cc(C(F)(F)F)cc(Cl)c3=O)cc(=O)n2c1`, the Potency was inconclusive: 9.2 µM [activator, partial curve, poor fit].
With `COc1cccc(CNCCN2CCOCC2)c1OC` the lipid storage change, negative = inhibition was inconclusive: -152%.
